# Measured values reported in PubChem BioAssay AID651640 (Broad Institute, 2012).
# Hit rate of the full screen: of about 350,000 compounds, about 6,000 (1.7%) were called active. Inconclusive means that the source gave no clear call. Such entries were picked first, then a sample of the others. No stated cut-off is given here; in the data, active means CPE inhibition above about 20% (passing the limit was not always enough); inconclusive means no clear call, values can overlap the other calls; tested in BHK-21 cells.
# Assay: protection of cells from dengue 2 killing – plate reader, single concentration, primary screen (AID 651640);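 further: 0% = median of neutral control wells and 100% = median of positive control wells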
# Conditions: DENV2-infected cells, cytopathic effect rescue, at 9.99 µM, hits give high values
row,Structure (SMILES),CPE inhibition
1,O=C(C[C@H]1CC[C@@H]2[C@H](COC[C@H](O)CN2C(=O)c2ccc3c(c2)OCO3)O1)NC1Cc2ccccc2C1,active: 23.7%
2,COc1ccc(NC(=O)c2cc(S(=O)(=O)N3CCCC3)c[nH]2)cc1,inconclusive: 47.5%
3,COc1cc2c(c(OC)c1OC)C(=O)CC2,inconclusive: 27.5%
4,Cc1c(NC(=O)Nc2ccc(C#N)cc2)c(=O)n(-c2ccccc2)n1C,inconclusive: 34%
5,N/C(=N\OC(=O)Nc1ccccc1)c1ncc([N+](=O)[O-])s1,active: 33.2%
6,O=C(c1ccc(CNc2c(N3CCCC3)c(=O)c2=O)cc1)N1CCN(C2CCCCC2)CC1,active: 78.5%
7,COc1ccc(NC(=O)N2CC[C@@H]3[C@@H](CO)N(C)c4ccc(Br)cc4[C@@H]32)cc1,active: 54.4%
8,O=C(O)CCC(=O)NCCn1c(-c2ccccc2)csc1=Nc1ccccc1,inconclusive: 25.3%
9,O=C(c1ccccc1S(=O)(=O)NCc1ccccc1)N1CCCCC1,inconclusive: 47.5%
10,COc1ccc(-n2cc(CNCCc3nc(C)cc(C)n3)c(-c3ccccc3Cl)n2)cc1,inactive: 5.26%
11,C[C@@H]1CN([C@@H](C)CO)C(=O)Cc2cc(NS(=O)(=O)c3ccc(Cl)cc3)ccc2O[C@H]1CN(C)C(=O)NC1CCCCC1,inactive: -13.6%
12,CC(=O)Nc1cccc(NC(=O)CCNC(=O)c2ccc(Cl)cc2)c1,inactive: -3.17%
13,Cc1ccc(S(=O)(=O)N[C@@H]2CC[C@H](CCNC(=O)Nc3ccc(Cl)cc3)O[C@H]2CO)cc1,inconclusive: 20.1%
14,CN(Cc1nc2ccccc2c(=O)[nH]1)C(=O)c1cccc(S(=O)(=O)N2CCCCCC2)c1,inactive: 1.98%
15,COC(=O)c1sc(S(=O)(=O)Nc2c(C)nn(C)c2C)c(C(=O)OC)c1C,inconclusive: 21.9%
16,N#C[C@@H]1[C@H](c2ccc(-c3ccccc3F)cc2)[C@@H](CO)N1C(=O)C1CC1,active: 37.1%
17,Cc1cc(CNC(=O)c2cc(-c3ccccc3)nc3ccccc23)nn1C,inactive: 2.64%
18,O=S(=O)(c1ccccc1)N1CC[C@@H]2[C@H]1c1cc(C#Cc3ccccc3F)ccc1N[C@@H]2CO,inconclusive: 28.2%
19,Cc1cc(NC(=O)CCCn2cc([N+](=O)[O-])cn2)n(Cc2ccc(F)cc2)n1,inconclusive: 22.5%
20,O=C(CNc1ccc2ccccc2c1)N/N=C/c1ccc(C(=O)O)cc1,inconclusive: 31.5%
21,CCC1=C(OC(=O)N(CC)CC)N2C(=O)OC(=NCC3CC3)[C@]2(C)[C@H]2C1=CC[C@H]1C(=O)NC(=O)[C@H]12,active: 46.4%
22,CCNC(=O)C[C@H]1CC[C@@H]2[C@@H](COc3ccc(NC(=O)Nc4ccc(F)cc4)cc3C(=O)N2C)O1,inactive: 18.6%
23,CCCCOC(=O)C1CN(c2ccccc2)N=C1C(C)=O (configuration not stated),inconclusive: 37.4%
24,Cc1ccc(N2C(=O)c3ccccc3C2=O)cc1,inactive: 1.38%

row,Structure (SMILES),CPE inhibition
1,COc1ccccc1CNC(=S)NCc1ccc(F)cc1,inconclusive: 49.1%
2,CCn1nc(C(=O)Nc2ccccc2N2CCCC2)c2ccccc2c1=O,inconclusive: 21.7%
3,CCCc1cc(=O)n2[nH]c(C)c(-c3ccccc3OC)c2n1,inconclusive: 57.7%
4,CC(C)N(Cc1ccccc1)C(=O)c1ccc2nsnc2c1,inconclusive: 20.5%
5,O=[N+]([O-])c1ncccc1OCc1ccc(-c2ccccc2)cc1,inactive: -6.63%
6,CCC(=O)N[C@@H]1CC[C@H](CC(=O)NCc2cc(F)cc(F)c2)O[C@H]1CO,inconclusive: 22.5%
7,O=c1[nH]c2ccc([N+](=O)[O-])cc2[nH]1,inconclusive: 22.4%
8,Cc1ccc(S(=O)(=O)N2C[C@@H]3[C@H]4CC[C@H](C4)[C@@H]3[C@@H](C)[C@@H]2c2ccn([Si](C(C)C)(C(C)C)C(C)C)c2)cc1,active: 24.9%
9,COc1cccc(Nc2ncc(C#N)c(N)n2)c1,inconclusive: 42%
10,O=C(CC[C@H]1O[C@@H](n2ccc(=O)[nH]c2=O)[C@H](O)[C@@H]1O)N[C@H](Cc1ccccc1)C(=O)NCC1CCCCC1,inconclusive: 30.9%
11,O=C(Cc1cccc(NC(=O)C2CCCN(C(=O)CCc3ccccc3)C2)c1)Nc1ccc(C(=O)N2CCOCC2)cc1 (configuration not stated),inconclusive: 34.2%
12,CO[C@H]1CN(C)C(=O)c2cc(NS(=O)(=O)c3ccccc3Cl)ccc2OC[C@H](C)NC[C@H]1C,inactive: 10.3%
13,COc1cccc(-c2ccc([C@@H]3[C@@H](CO)N4CCCCN(CC5CC5)C[C@H]34)cc2)c1,active: 42.6%
14,COc1ccccc1-c1sc2ccccc2c1-c1ccc(Br)nc1,active: 24.6%
15,O=S(=O)(c1ccccc1)N1CCCCN2[C@@H](CO)[C@H](c3ccc(-c4cncnc4)cc3)[C@@H]2C1,inactive: -4.81%
16,C[C@@H]1CCCCO[C@H](CN(C)S(=O)(=O)c2cccs2)[C@H](C)CN([C@@H](C)CO)C(=O)c2cc(NC(=O)Nc3ccc(F)cc3)ccc2O1,inactive: -3.48%
17,CC(=O)C1=C(O)C(=O)N(Cc2cccnc2)C1c1ccc(C(C)C)cc1 (configuration not stated),inconclusive: 31.5%
18,O=C(C[C@H]1CC[C@@H]2[C@H](COC[C@@H](O)CN2C(=O)Nc2ccc(F)cc2)O1)NCCCN1CCOCC1,inconclusive: 27%
19,C[C@H](O)C#Cc1cnc2c(c1)C(=O)N([C@@H](C)CO)C[C@@H](C)[C@H](CN(C)C(=O)c1ccccc1)O2,inactive: -15.8%
20,COc1ccc2c3c(n(C)c2c1)[C@H](CO)N(C(=O)C1CCC1)CC31CN(Cc2cccc(F)c2)C1,active: 22%
21,Cc1ccc(S(=O)(=O)Nc2ccc3c(c2)C(=O)N([C@@H](C)CO)C[C@@H](C)[C@H](CN(C)Cc2ccncc2)O3)cc1,active: 35.3%
22,C[C@H](CO)N1C[C@H](C)[C@@H](CN(C)Cc2ccc(Cl)c(Cl)c2)Oc2c(NC(=O)c3cnccn3)cccc2C1=O,inconclusive: 41.6%
23,COCC(=O)N1[C@H](CN(C)C(=O)c2ccccc2)[C@@H](c2ccccc2)[C@@H]1CO,inconclusive: 45.7%

# Nothing new here: an excerpt of the list.
row,Structure (SMILES),CPE inhibition
12,CO[C@H]1CN(C)C(=O)c2cc(NS(=O)(=O)c3ccccc3Cl)ccc2OC[C@H](C)NC[C@H]1C,inactive: 10.3%
13,COc1cccc(-c2ccc([C@@H]3[C@@H](CO)N4CCCCN(CC5CC5)C[C@H]34)cc2)c1,active: 42.6%
14,COc1ccccc1-c1sc2ccccc2c1-c1ccc(Br)nc1,active: 24.6%
